# Data as given in PubChem BioAssay AID743121 (NCATS, 2013)
# Assay: 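Knock-downs that sensitise breast cancer cells to camptothecin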 (primary screen)
# System: MDA-MB-231 cells, a human breast cancer line
# Reagent: single siRNA against human genes, 20 nM siRNA (0.8 pmol per well)
# Time to read-out: 120 h (drug added 48 h after transfection, read 72 h later)
# Challenge: camptothecin 20 nM (about EC30) for 72 h; vehicle 0.1% DMSO in parallel plates
# Read-out: 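CellTiter-Glo ATP signal, scaled to control siRNA as percent viability; sensitisation given as log2 of untreated divided by camptothecin-treated viability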
# Scale: log2 vehicle/camptothecin viability: higher = stronger sensitisation to camptothecin; viability with camptothecin: higher = more viable cells
# Active means: 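Each gene scored by redundant siRNA activity (RSA) over its individual siRNA ratios; a gene is called active at p < 0.001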
# The deposit covers about 26,000 reagents; shown is an unselected part. 167 of them (0.63%) were called active. 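Calls are per gene from RSA p-values that are not deposited; an individual active-marked siRNA can sensitise only weakly.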 Unmarked entries are inactive. Reagents against one gene are numbered here. Not all columns of the deposit are shown.
gene,reagent,log2 vehicle/camptothecin viability,viability with camptothecin (% of control)
ADRA2A,1,-0.301,90
ADRA2A,2,-0.699,14.6
ADRA2A,3,-0.596,99.1
ADRA2A,4,-0.185,113
TOP1MT,1,-0.158,95.1
TOP1MT,2,0.175,59.2
TOP1MT,3,0.313,58.6
ADAM19,1,0.704 (active),51
ADAM19,2,0.804 (active),38.7
ADAM19,3,0.637 (active),64.7
ADAM19,4,0.109 (active),109
PGLYRP2,1,-0.0835,90.8
PGLYRP2,2,-0.513,74.8
PGLYRP2,3,0.472,54.9
PGLYRP2,4,-1.1,83.9
NUP98,1,-0.636,48.4
NUP98,2,-0.48,52.9
NUP98,3,-0.265,26.9
NUP98,4,-0.387,33.9
PDPR,1,-0.179,128
PDPR,2,-0.414,89.6
PDPR,3,-0.0041,58.9
PDPR,4,0.151,54.9
IGFBP2,1,-0.077,96
IGFBP2,2,-0.3,115
IGFBP2,3,-0.316,69.7
GPX7,1,-0.166,42
GPX7,2,-0.0703,102
GPX7,3,0.513,34.2

A run of entries of the results above, for reference:
gene,reagent,log2 vehicle/camptothecin viability,viability with camptothecin (% of control)
PDPR,4,0.151,54.9
IGFBP2,1,-0.077,96
IGFBP2,2,-0.3,115
IGFBP2,3,-0.316,69.7
GPX7,1,-0.166,42
GPX7,2,-0.0703,102

The list goes on.
gene,reagent,log2 vehicle/camptothecin viability,viability with camptothecin (% of control)
TRIM58,1,-0.577,68.8
TRIM58,2,-0.0882,53.6
TRIM58,3,-0.0991,71.9
TRIM58,4,-0.115,49.6
FGF9,1,-0.333,135
FGF9,2,-0.394,58.8
FGF9,3,0.0209,67.2
BIK,1,-0.236,85
BIK,2,0.352,24.3
BIK,3,-0.489,89.5
BIK,4,-0.323,65.2
PRKG1,1,-0.151,115
PRKG1,2,-0.274,90.3
PRKG1,3,0.189,74.5
PRKG1,4,-0.187,120
PSMA7,1,-0.379,38.9
PSMA7,2,-0.19,64.2
PSMA7,3,-0.219,36.5
PSMA7,4,-0.644,34.1
ABCG2,1,-0.273,51.3
ABCG2,2,-0.292,94.4
ABCG2,3,0.0159,70.4
ABCG2,4,-0.314,120
OCRL,1,-0.61,78.9
OCRL,2,-0.346,140
OCRL,3,-0.14,96.3
ARG1,1,-0.388,84
ARG1,2,-0.195,96.7
ARG1,3,-0.617,92.4
ARG1,4,0.0926,42.2
C8B,1,-0.023,91.3
C8B,2,-0.15,21.4
C8B,3,-0.063,44.6
C8B,4,0.0613,55.6
ACSL6,1,0.124,76.2
ACSL6,2,-0.0128,93.1
ACSL6,3,-0.163,35.2
ACSL6,4,0.0816,88.5
STK36,1,-0.284,117
STK36,2,-0.243,87.5
STK36,3,-0.109,88.5
STK36,4,-0.145,89.5
